These results are taken from patent US20050221196A1, “Redox shuttle for rechargeable lithium-ion cell” (priority 2004, published 2005).

Data set [1] is described as follows: Shuttle molecules tested in LiFePO4/graphite and LiFePO4/Li4/3Ti5/3O4 coin cells, C/10, 100% overcharge. As to conditions: tested until the shuttle ceased to function. The procedure:
A variety of shuttle molecules (obtained from Aldrich Chemical Co. and used without further purification) were tested in LiFePO4/graphite and LiFePO4/Li4/3Ti5/3O4 coin cells. The LiFePO4 was obtained from Phostech Lithium as in Example 1 and the Li4/3Ti5/3O4 was obtained from NEI Corp. (Piscataway, N.J., USA). The graphite used was mesocarbon microbeads (MCMB) heat treated to near 2650° C. Electrodes were made from the active materials 10% by weight Super S carbon black (MMM Carbon, Belgium) and 10% by weight PVDF binder. LiFePO4 and Li4/3Ti5/3O4 electrodes were coated on aluminum foil and MCMB electrodes were coated on copper foil. […] The electrolyte was 0.7 M LiBOB in a 1:2:1:2 by volume mixture of PC:DMC:EC:DEC. The shuttle molecule was added in a concentration of 0.1M. Coin cells were charged using currents corresponding to a normal recharge in 10 hours (C/10) to 200% of their normal charge capacity (100% overcharge) or until a specified upper cut-off potential (normally 4.9V versus Li/Li^+) was reached, which ever occurred first and tested until the shuttle ceased to function. Four shuttles were employed, namely 1,3,5-tri-t-butyl-2-methoxybenzene (Example 9), 5-t-butyl-1,3-dinitro-2-methoxybenzene (Example 10), 2-t-butyl-4,6-dinitro-5-methylanisole (Example 11) and 4-t-butyl-2,6-diaminoanisole (Comparison Example 10). The coin cell test results are set out below in Table 2: […]

A short description of data set [2]: Extended shuttle-protected overcharge cycling, LiFePO4/graphite cell, 100% overcharge each cycle. The procedure:
Further testing was carried out to evaluate currents up to 1/3 of Imax in extended shuttle-protected overcharge tests. […] The shuttle plateau is near 3.9 V because the graphite electrode is near 0 V vs Li/Li^+ when the Li-ion coin cell is fully charged. The charging current was 0.55 mA, which corresponds to about a C/2-rate for the electrodes of this cell. The shuttle continues to perform well after 200 charge discharge cycles. […] In this case, the shuttle was able to protect against overcharge for about 190 cycles, followed by disappearance of the shuttle effect over the next few cycles. […] The loss of shuttle effect at high C rates may have been due to the Li4/3Ti5/3O4 negative electrode dropping below its plateau potential (1.55 V) before reaching the fully discharged state.

Each structure is given as a SMILES string.

As for `COc1c(C(C)(C)C)cc([N+](=O)[O-])c(C)c1[N+](=O)[O-]` [Example 11, 2-t-butyl-4,6-dinitro-5-methylanisole], the Cycles in data set [1] was 2. Regarding `COc1cc(C(C)(C)C)c(OC)cc1C(C)(C)C` [2,5-di-tert-butyl-1,4-dimethoxybenzene], the “charge discharge cycles after which shuttle continues to perform well” value in data set [2] (0.55 mA charging current, about C/2-rate) is recorded as no less than 200 cycles. In data set [2] (1.1 mA charging current, about C-rate), the “cycles of protection against overcharge” value was “about 190 cycles”. On to `COc1c(C(C)(C)C)cc(C(C)(C)C)cc1C(C)(C)C` [Example 9, 1,3,5-tri-t-butyl-2-methoxybenzene], for which the Cycles in data set [1] stood at 3. The compound `COc1c([N+](=O)[O-])cc(C(C)(C)C)cc1[N+](=O)[O-]` [Example 10, 5-t-butyl-1,3-dinitro-2-methoxybenzene] came in with a Cycles in data set [1] of 2. Same read-out and setting: in the case of `COc1c(N)cc(C(C)(C)C)cc1N` [Comp. Ex. 5, 4-t-butyl-2,6-diaminoanisole, reference compound] it was 0.
